PubChem BioAssay AID1259308 | NCATS | 2017
Purpose: 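Genes whose loss raises luciferase production in HEK293 cells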 (primary screen). Cells: human HEK293 embryonic kidney cells stably expressing firefly luciferase (HEK-CMV-Luc2-Hygro). Reagents: single siRNA against human genes, 0.8 pmol siRNA per well. Time to read-out: 72 h. Measured: 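Luciferase light (ONE-Glo) measured on one replicate plate set and viability (CellTiter-Glo) on the other, scaled to a negative control siRNA, with robust z-scores and luciferase per cell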. Direction: total luciferase, z-score and total luciferase, % of control: higher = more reporter protein produced; luciferase per cell, z-score: higher = more reporter output per viable cell; viable cells, % of control: higher = more viable cells. Rule for the call: 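An siRNA counts as active if its total luciferase robust z-score exceeds 3; genes with two or more such siRNAs out of three were retested with fresh siRNAs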. Calls: active = raised luciferase; inactive = no rise.
The deposit covers about 59,000 reagents; this is a random part of them. About 1,510 of all reagents (2.6%) were called active. 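Calls use total luciferase alone and ignore viability, so some active siRNAs may act by altering cell number.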 The numbers tell different reagents against one gene apart.

| Gene | siRNA no. | total luciferase, z-score | total luciferase, % of control | luciferase per cell, z-score | viable cells, % of control | Call |
| --- | --- | --- | --- | --- | --- | --- |
| PCED1CP | 1 | -0.891 | 64.2 | -0.502 | 81.8 | inactive |
| PCED1CP | 2 | -0.137 | 79.2 | 0.357 | 80.5 | inactive |
| PCED1CP | 3 | -0.471 | 72.5 | -0.626 | 95.6 | inactive |
| GLDN | 1 | 1.68 | 115 | 1.38 | 89.5 | inactive |
| GLDN | 2 | 0.147 | 84.8 | -0.304 | 103 | inactive |
| GLDN | 3 | -0.436 | 73.2 | -0.867 | 103 | inactive |
| TSPY3 | 1 | 0.175 | 85.4 | 0.256 | 89.2 | inactive |
| TSPY3 | 2 | 2.59 | 133 | 1.93 | 89.8 | inactive |
| TSPY3 | 3 | 0.695 | 95.7 | 1.6 | 70.1 | inactive |
| FHL3 | 1 | -0.394 | 74.1 | -0.569 | 96.1 | inactive |
| FHL3 | 2 | 2.31 | 128 | 2.62 | 71.6 | inactive |
| FHL3 | 3 | 0.753 | 96.9 | 1.2 | 79 | inactive |
| NDUFS1 | 1 | 0.018 | 82.2 | -0.514 | 105 | inactive |
| NDUFS1 | 2 | 0.248 | 86.8 | 0.359 | 88.3 | inactive |
| NDUFS1 | 3 | 2.49 | 131 | 1.96 | 87.6 | inactive |
| CBX8 | 1 | -0.225 | 77.4 | -0.341 | 94.6 | inactive |
| CBX8 | 2 | -0.941 | 63.2 | -1.33 | 100 | inactive |
| CBX8 | 3 | -1.79 | 46.3 | -1.31 | 73 | inactive |
| MAGEE2 | 1 | -0.409 | 73.7 | -0.697 | 99 | inactive |
| MAGEE2 | 2 | 0.658 | 95 | 0.328 | 97.3 | inactive |
| MAGEE2 | 3 | 1.38 | 109 | 2.33 | 66.2 | inactive |
| ACTN4 | 1 | 2.19 | 125 | 1.45 | 95.7 | inactive |
| ACTN4 | 2 | -0.458 | 72.8 | -0.747 | 99 | inactive |
| ACTN4 | 3 | -0.0285 | 81.3 | -0.494 | 103 | inactive |

Reformatted: 3 of the entries above
Gene	siRNA no.	total luciferase, z-score	total luciferase, % of control	luciferase per cell, z-score	viable cells, % of control	Call
MAGEE2	1	-0.409	73.7	-0.697	99	inactive
MAGEE2	2	0.658	95	0.328	97.3	inactive
MAGEE2	3	1.38	109	2.33	66.2	inactive
